Results published in PubChem BioAssay AID720504 (National Center for Advancing Translational Sciences (NCATS), 2013).
“And” between values parts separate entries of the source, which are not always exact repeats. Equal entries are not always repeated. The campaign covered roughly 360,000 compounds. About 10,000 (2.8%) were called active. Inconclusive means that the source gave no clear call. Such entries were picked first, then a sample of the others. Calls come from the whole dose curve; as a rule, active = well fitted inhibition curve with a large enough effect; inconclusive = small, poorly fitted or top-dose-only effect; inactive = flat fitted curve, though single readings scatter. Where the call is inconclusive, the potency comes from a doubtful curve fit.

The chains behind the UniProt entries cited, without tags or fusion partners.
UniProt P53350, whole entry, looked up: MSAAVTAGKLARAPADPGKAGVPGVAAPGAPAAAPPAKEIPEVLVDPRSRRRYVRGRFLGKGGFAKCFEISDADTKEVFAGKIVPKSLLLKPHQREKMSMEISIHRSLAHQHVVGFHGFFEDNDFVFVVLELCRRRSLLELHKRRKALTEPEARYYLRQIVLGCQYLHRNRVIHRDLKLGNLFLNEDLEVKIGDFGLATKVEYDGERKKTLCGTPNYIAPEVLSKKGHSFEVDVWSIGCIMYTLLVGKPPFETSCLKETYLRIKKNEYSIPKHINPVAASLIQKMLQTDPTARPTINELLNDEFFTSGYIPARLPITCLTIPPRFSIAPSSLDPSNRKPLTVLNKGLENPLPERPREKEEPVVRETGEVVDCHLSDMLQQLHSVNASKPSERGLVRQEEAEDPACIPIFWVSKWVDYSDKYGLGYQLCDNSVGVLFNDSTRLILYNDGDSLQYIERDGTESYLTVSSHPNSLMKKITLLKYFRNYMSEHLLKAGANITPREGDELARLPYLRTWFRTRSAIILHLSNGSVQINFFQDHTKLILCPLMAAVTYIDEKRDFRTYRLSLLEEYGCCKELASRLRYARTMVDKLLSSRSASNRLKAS

Target: Serine/threonine-protein kinase PLK1 (Homo sapiens) (UniProt P53350)
Assay: qHTS for Inhibitors of PLK1-PDB (polo-like kinase 1 - polo-box domain): Primary Screen; note: nearly all actives have a fitted effect of over 65% in size; for max response, negative = inhibition: series mostly up to about 57 µM
Settings: Plk1 PBD binding of FITC phosphopeptide, fluorescence polarization
% is set by controls: 0 for no effect and ±100 for the full control effect; potency is the fitted concentration of half-maximal effect.

SMILES | max response, negative = inhibition | Potency
CCc1ccccc1NC(=O)C1CCN(S(C)(=O)=O)CC1 | inactive: -7.94% | 
CC1CCc2c(sc(/N=C/c3cccnc3)c2C(N)=O)C1 (centres undefined) | inconclusive: -31.2% [inhibitor] | 
Cc1cc2nc3ccc(N(C)C)cc3nc2cc1N |  | inconclusive: 0.844 µM [inhibitor, full curve]
CN(CC(=O)Nc1ccc(N2CCOCC2)cc1)C(=O)CSc1ccc(Br)cc1 |  | inconclusive: 26.7 µM [inhibitor, partial curve]
Cc1nc(Cc2nnc(SCC(=O)Nc3c(C)cccc3C)o2)cs1 | inconclusive: -30.7% [inhibitor] | 
O=C(O)c1ccc(N2CC3CC(C2)c2cccc(=O)n2C3)c(NC(=S)Nc2ccc(Br)cc2)c1 (centres undefined) |  | active: 18.9 µM
COc1cccc(-n2cnc(=O)c3cccnc32)c1 | inactive: -5.69% | 
CCC(C)NC(=O)CSc1c2c(nc3ccccc13)CCCC2 (centres undefined) |  | active: 16.8 µM
CC1=[N+]([O-])C(C)(C)C(c2ccc(Br)cc2)=[N+]1[O-] |  | inconclusive: 7.52 µM [inhibitor, partial curve]
Cc1nn(-c2ccc(Cl)cc2)c2[nH]c(=O)c(CNCc3ccc4c(c3)OCO4)cc12 |  | inconclusive: 23.8 µM [inhibitor, partial curve]
CCOC(=O)C1Nc2ccccc2C2c3ccccc3CC12 (centres undefined) | inconclusive: -32% [inhibitor] | 
CCN1C(=O)[C@H]2[C@H]3CN=C(SCc4ccc(C#N)cc4)N3[C@@](Cc3ccccc3)(C(=O)OC)[C@H]2C1=O | inactive: -12.3% | 
COc1cccc(NC(=O)CN(c2ccc3c(c2)OCO3)S(C)(=O)=O)c1 |  | inconclusive: 26.7 µM [inhibitor, single point]
CCOC(=O)C1=C(Nc2ccc(Cl)cc2)OCC1=O | inactive: 1.67% | 
CCOC(=O)c1sc(=S)n(-c2ccccc2)c1C | inactive: -10% | 
Cc1c(Cc2ccccc2)sc(NC(=O)/C=C/c2cccc3ccccc23)c1C(N)=O |  | active: 7.52 µM
O=C(O)c1cc(OCc2ccccc2)cc(OCc2ccccc2)c1 | inconclusive: -32.6% [inhibitor] | 
CC(C)CCn1c(COc2ccccc2)nn(CCC#N)c1=S | inactive: -2.27% | 
Cc1ccc(-c2nc3cnccn3c2Nc2c(C)cccc2C)o1 | inconclusive: -33.3% [inhibitor] | inconclusive: 6.31 µM [inhibitor, full curve]
O=C(C1=C[C@@H]2[C@H]3C(=O)N(c4cccc(Cl)c4)C(=O)[C@H]3[C@@H](C(=O)c3ccc(Cl)cc3)N2C=C1)c1ccccc1 |  | inconclusive: 11.9 µM [inhibitor, partial curve]
CCOc1ccc(N(CC(=O)NCCSCc2ccco2)S(=O)(=O)c2ccc(F)cc2)cc1 | inactive: -4.39% | 
Cc1cccc(OCCSc2nc(N)cc(N)n2)c1 |  | active: 3.77 µM
Cc1ccc(NC2(C#N)CCCC2)cc1 | inactive: -13.8% | 
C#CC(=O)N(c1cccc(OC)c1)C(C(=O)NC1CCCC1)c1cccs1 (centres undefined) |  | inconclusive: 29.9 µM [inhibitor, single point]
Cc1ccc(NS(=O)(=O)c2ccc3[nH]c(=O)oc3c2)c(C)c1 |  | active: 29.9 µM

Shown comma-delimited: part of the list above.
SMILES,"max response, negative = inhibition",Potency
CCN1C(=O)[C@H]2[C@H]3CN=C(SCc4ccc(C#N)cc4)N3[C@@](Cc3ccccc3)(C(=O)OC)[C@H]2C1=O,inactive: -12.3%,
COc1cccc(NC(=O)CN(c2ccc3c(c2)OCO3)S(C)(=O)=O)c1,,"inconclusive: 26.7 µM [inhibitor, single point]"
CCOC(=O)C1=C(Nc2ccc(Cl)cc2)OCC1=O,inactive: 1.67%,

Going on with the list.

SMILES | max response, negative = inhibition | Potency
Cc1ccc(C(c2sc3nc(C)nn3c2O)N2CCN(c3ccccc3)CC2)cc1 (centres undefined) |  | inconclusive: 23.8 µM [inhibitor, partial curve]
CCOc1cc(/C=N/Nc2cc(C)nc(-n3nc(C)cc3C)n2)ccc1O | inactive: -3.29% | 
Cc1cc(C(=O)COC(=O)c2ccccc2Br)c(C)n1CC1CCCO1 (centres undefined) | inactive: -14.8% | 
CCCn1nnnc1NCc1cccc(OC)c1OC |  | inconclusive: 26.7 µM [inhibitor, single point]
Cc1ccc(NC(=O)CSc2nnc(NC(=O)c3ccco3)s2)cc1 |  | inconclusive: 23.8 µM [inhibitor, partial curve]
CCN(CC)c1ccc(NC(=O)CSC(=O)c2ccccc2)cc1 |  | inconclusive: 29.9 µM [inhibitor, partial curve]
COc1cc(/C=C2/C(=O)ON=C2C)ccc1OCc1ccccc1F |  | inconclusive: 0.474 µM [inhibitor, full curve, poor fit]
Cc1ccc(S(=O)(=O)NC(=O)CSc2nc3ccccc3s2)cc1 | inconclusive: -30.7% [inhibitor] | 
Cc1cc(C)nc(Sc2ncnc(N)c2[N+](=O)[O-])n1 | inactive: -19.4% | 
CCn1c(COc2ccc3c(c2)OCO3)nnc1SCC(=O)c1ccccc1 | inactive: -6.17% | 
CC(C)Oc1ccc(Cc2cnc(=S)[nH]c2N)cc1 |  | inconclusive: 18.9 µM [inhibitor, partial curve]
O=C(COc1ccc2c(c1)oc(=O)c1ccccc12)NC(Cc1ccc(Cl)cc1)C(=O)O (centres undefined) | inactive: -8.86% | 
CCOC(=O)N1CCN(Cc2ccccn2)CC1 | inactive: -8.28% | 
CC(=O)C1=C(O)C(=O)N(c2nccs2)C1c1ccc(F)cc1 (centres undefined) | inactive: -10.3% | 
C=CCn1c(SCC(=O)N2CCC(C)CC2)nc2c([nH]c3ccccc32)c1=O | inactive: 10.5% | 
Nc1c(C(=O)Nc2ccccc2)sc2nc(N3CCOCC3)c3c(c12)CCCC3 |  | inconclusive: 29.9 µM [inhibitor, partial curve]
CCNC(=O)COC(=O)c1cc(-c2ccco2)nc2ccccc12 |  | inconclusive: 26.7 µM [inhibitor, single point]
Cc1cccc(NC(=O)CN(C)C(=O)/C=C/c2ccccc2)c1C | inactive: -6.98% | 
O=C(O)C1CC=CCC1C(=O)N1CCN(c2nc(-c3ccccc3Cl)c3cc(Br)ccc3n2)CC1 (centres undefined) |  | inconclusive: 23.8 µM [inhibitor, partial curve]
CC1(C)Cc2c(sc(NC(=O)Cc3ccccc3)c2C#N)CO1 |  | inconclusive: 26.7 µM [inhibitor, partial curve]
O=[N+]([O-])c1ccc(N2CCCCC2)s1 |  | inconclusive: 29.9 µM [inhibitor, partial curve]
Oc1ccc(CNc2ccccc2F)c2cccnc12 |  | active: 3.36 µM
CC(=O)Oc1cc2cccc(OC(C)=O)c(=O)c2c(OC(C)=O)c1OC(C)=O |  | inconclusive: 29.9 µM [inhibitor, partial curve]
CCOc1ccc2nc(NCCNC(=O)C3CC3)c(C)cc2c1 | inconclusive: -31.1% [inhibitor] | 
O=C(NC1CCCC1)c1sc(=S)n2c1[nH]c(=O)c1ccccc12 |  | inconclusive: 23.8 µM [inhibitor, partial curve]

In another format: 3 of the compounds above
SMILES	max response, negative = inhibition	Potency
Cc1ccc(S(=O)(=O)NC(=O)CSc2nc3ccccc3s2)cc1	inconclusive: -30.7% [inhibitor]	
Cc1cc(C)nc(Sc2ncnc(N)c2[N+](=O)[O-])n1	inactive: -19.4%	
CCn1c(COc2ccc3c(c2)OCO3)nnc1SCC(=O)c1ccccc1	inactive: -6.17%	

The list continues.

SMILES | max response, negative = inhibition | Potency
Cc1nn(C)cc1CN1CCC(CO)(CCOc2ccccc2)CC1 |  | inconclusive: 2.99 µM [inhibitor, partial curve]
CC1OC(CC(=O)O)CC2=C1C(=O)c1c(O)cccc1C2=O (centres undefined) |  | active: 2.38 µM
CCOC(=O)c1c(-c2ccccc2)csc1NC(=S)NC |  | inconclusive: 23.8 µM [inhibitor, partial curve]
CCCn1c(SCC(=O)N2c3ccc(F)cc3CCC2C)nnc1-c1ccccn1 (centres undefined) |  | active: 29.9 µM
CCCn1c(SCC(=O)c2cc(OC)ccc2OC)nnc1C(C)C |  | inconclusive: 28.2 µM [inhibitor, single point]
CN(C)CCNC(=O)c1cc2c(=O)n(C)c3ccccc3c2n1C | inactive: -3.55% | 
CN(C)c1ccc(N=Nc2ccc(S(=O)(=O)O)cc2)c2ccccc12 |  | inconclusive: 29.9 µM [inhibitor, partial curve]
COc1ccc(NC(=O)CN(c2cc(C)cc(C)c2)S(=O)(=O)c2c(C)noc2C)cc1OC |  | inconclusive: 26.7 µM [inhibitor, partial curve]
O=C(CCc1ccccc1)NNC(=S)NC(=O)c1ccccc1 |  | active: 26.7 µM
CCOC(=O)c1ccc(NC(=O)CC2Sc3ncnn3C2=O)cc1 (centres undefined) |  | inconclusive: 21.2 µM [inhibitor, single point]
COc1ccc(NC(=O)CN2C(=O)/C(=C3\SC(=S)N(CCC(=O)O)C3=O)c3ccccc32)cc1 |  | active: 10.6 µM
CCC(=O)Nc1nc(C)c(-c2csc(Nc3ccc(C(=O)O)cc3)n2)s1 |  | inconclusive: 26.7 µM [inhibitor, single point]
Cc1cc(C)n2nc(C(=O)NC3CCCc4ccccc43)nc2n1 (centres undefined) | inconclusive: -31.9% [inhibitor] | 
COc1cccc(/C=C2\SC(=S)N(C(Cc3ccccc3)C(=O)O)C2=O)c1 (centres undefined) |  | active: 33.6 µM
COC(=O)Cc1ccc(O)c(N)c1 |  | active: 9.47 µM
COc1cc(NC(=O)c2cccc3c2C(=O)N(C2CCCCC2)C3)cc(OC)c1OC |  | inconclusive: 5.97 µM [inhibitor, partial curve, poor fit]
Fc1ccc([C@@H]2CCNC[C@H]2COc2ccc3c(c2)OCO3)cc1 | inactive: -7.28% and inactive: -8.81% and inactive: -4.06% | 
COc1ccc(CN=Cc2c(O)[nH]c3ccccc23)cc1 |  | active: 21.2 µM
CO/N=C/C(=N\Nc1ccc(OC)cc1)C(=O)c1ccc(F)cc1 |  | active: 23.8 µM
COc1ccccc1-n1c(SCC(=O)Nc2ccccc2F)nc2[nH]ncc2c1=O |  | inconclusive: 22.4 µM [inhibitor, partial curve]
CCC(=O)N1CCc2cc(S(=O)(=O)CCC(=O)O)ccc21 |  | inconclusive: 21.2 µM [inhibitor, single point]
CC(C)(C)c1ccc(-c2nnc3sc(-c4ccncc4)nn23)cc1 |  | inconclusive: 11.9 µM [inhibitor, partial curve]
Cc1ccc(-c2cn3c(n2)SCC3)cc1 |  | inconclusive: 4.74 µM [inhibitor, partial curve, poor fit]
